Cleaved PARP in drug-treated melanoma cells

Values as published with doi:10.1371/journal.pone.0140310, rounded.

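Human melanoma cell lines in 1,536-well plates were treated with two drugs together for 72 h, then fixed, stained and imaged. Values are the share of nuclei positive for cleaved PARP as a percentage of the same share in the DMSO control: 100 is the control level, higher means more apoptosis. Concentrations were fixed for each drug; these are the higher of two levels. These are primary screening values without error estimates. Basal and induced levels differ widely between cell lines.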
Only some of the drugs and lines screened are listed, without regard to their results.
An entry leaves out what has no value listed here.

Drugs:
PF-04217903: OCCn1cc(-c2cnc3nnn(Cc4ccc5ncccc5c4)c3n2)cn1 at 5 µM
GW2580: COc1ccc(COc2ccc(Cc3cnc(N)nc3N)cc2OC)cc1 at 5 µM
NVP-TAE684: COc1cc(N2CCC(N3CCN(C)CC3)CC2)ccc1Nc1ncc(Cl)c(Nc2ccccc2S(=O)(=O)C(C)C)n1 at 0.4 µM
tipifarnib: Cn1cncc1[C@@](N)(c1ccc(Cl)cc1)c1ccc2c(c1)c(-c1cccc(Cl)c1)cc(=O)n2C at 0.05 µM
GW0742: Cc1cc(SCc2sc(-c3ccc(C(F)(F)F)c(F)c3)nc2C)ccc1OCC(=O)O at 10 µM
KU-55933: O=c1cc(-c2cccc3c2Sc2ccccc2S3)oc(N2CCOCC2)c1 at 5 µM
FH535: Cc1cc([N+](=O)[O-])ccc1NS(=O)(=O)c1cc(Cl)ccc1Cl at 5 µM
AS-252424: O=C1NC(=O)/C(=C/c2ccc(-c3ccc(F)cc3O)o2)S1 at 5 µM
temozolomide: Cn1nnc2c(C(N)=O)ncn2c1=O at 10 µM
IMD-0354: O=C(Nc1cc(C(F)(F)F)cc(C(F)(F)F)c1)c1cc(Cl)ccc1O at 0.08 µM
MK-2206: NC1(c2ccc(-c3nc4ccn5c(=O)[nH]nc5c4cc3-c3ccccc3)cc2)CCC1 at 2 µM
PD173074: CCN(CC)CCCCNc1ncc2cc(-c3cc(OC)cc(OC)c3)c(NC(=O)NC(C)(C)C)nc2n1 at 0.5 µM
SU6656: CN(C)S(=O)(=O)c1ccc2c(c1)/C(=C/c1cc3c([nH]1)CCCC3)C(=O)N2 at 2 µM
vincristine: CC[C@]1(O)C[C@H]2CN(CCc3c([nH]c4ccccc34)[C@@](C(=O)OC)(c3cc4c(cc3OC)N(C=O)[C@H]3[C@@](O)(C(=O)OC)[C@H](OC(C)=O)[C@]5(CC)C=CCN6CC[C@]43[C@@H]65)C2)C1 at 0.0005 µM

{"drugs": "KU-55933 + PF-04217903", "501mel": 160, "LB2518-MEL": 121, "SK-MEL-30": 30.8, "MZ2-MEL": 121, "MeWo": 87.8, "UACC-62": 192, "WM1716": 113, "RVH-421": 40.2}
{"drugs": "temozolomide + MK-2206", "LB2518-MEL": 38.8, "SK-MEL-30": 231, "MZ2-MEL": 53.8, "MeWo": 78.4, "UACC-62": 214, "WM1716": 186, "RVH-421": 89.6}
{"drugs": "PF-04217903 + temozolomide", "LB2518-MEL": 185, "SK-MEL-30": 232, "MZ2-MEL": 70.6, "MeWo": 101, "UACC-62": 129, "WM1716": 101, "RVH-421": 123}
{"drugs": "MK-2206 + PD173074", "501mel": 65.5, "LB2518-MEL": 100, "SK-MEL-30": 189, "MZ2-MEL": 104, "MeWo": 118, "UACC-62": 218, "WM1716": 88.3, "RVH-421": 277}
{"drugs": "vincristine + PD173074", "501mel": 62.6, "LB2518-MEL": 48.7, "SK-MEL-30": 238, "MZ2-MEL": 181, "MeWo": 84.3, "UACC-62": 168, "WM1716": 96.3, "RVH-421": 122}
{"drugs": "vincristine + PF-04217903", "LB2518-MEL": 206, "SK-MEL-30": 79.4, "MZ2-MEL": 91.6, "MeWo": 91.3, "UACC-62": 167, "WM1716": 96.5, "RVH-421": 108}
{"drugs": "temozolomide + FH535", "SK-MEL-30": 124, "MeWo": 51.0, "UACC-62": 130, "WM1716": 67.5, "RVH-421": 289}
{"drugs": "vincristine + temozolomide", "LB2518-MEL": 182, "SK-MEL-30": 429, "MZ2-MEL": 48.2, "MeWo": 58.4, "UACC-62": 341, "WM1716": 154, "RVH-421": 68.6}
{"drugs": "FH535 + SU6656", "501mel": 357, "LB2518-MEL": 94.9, "SK-MEL-30": 82.2, "MZ2-MEL": 128, "MeWo": 36.2, "UACC-62": 103, "WM1716": 137, "RVH-421": 128}
{"drugs": "vincristine + FH535", "501mel": 248, "LB2518-MEL": 245, "SK-MEL-30": 418, "MZ2-MEL": 562, "MeWo": 399, "UACC-62": 185, "WM1716": 100, "RVH-421": 214}
{"drugs": "GW2580 + NVP-TAE684", "501mel": 193, "LB2518-MEL": 166, "SK-MEL-30": 64.1, "MZ2-MEL": 90.3, "MeWo": 111, "UACC-62": 23.6, "WM1716": 105, "RVH-421": 50.1}
{"drugs": "AS-252424 + GW2580", "501mel": 132, "LB2518-MEL": 65.4, "SK-MEL-30": 80.9, "MZ2-MEL": 155, "MeWo": 164, "UACC-62": 45.5, "WM1716": 91.7, "RVH-421": 83.2}
{"drugs": "GW0742 + SU6656", "501mel": 65.6, "LB2518-MEL": 213, "SK-MEL-30": 139, "MZ2-MEL": 226, "MeWo": 193, "UACC-62": 52.3, "WM1716": 72.9, "RVH-421": 98.9}
{"drugs": "AS-252424 + vincristine", "SK-MEL-30": 259, "MeWo": 390, "UACC-62": 222, "WM1716": 212, "RVH-421": 192}
{"drugs": "SU6656 + IMD-0354", "LB2518-MEL": 319, "SK-MEL-30": 41.2, "MZ2-MEL": 154, "MeWo": 164, "UACC-62": 82.1, "WM1716": 108, "RVH-421": 108}
{"drugs": "tipifarnib + temozolomide", "LB2518-MEL": 46.7, "SK-MEL-30": 73.4, "MZ2-MEL": 74.8, "MeWo": 67.4, "UACC-62": 150, "WM1716": 135, "RVH-421": 49.2}
{"drugs": "GW0742 + AS-252424", "501mel": 138, "LB2518-MEL": 152, "SK-MEL-30": 125, "MZ2-MEL": 233, "MeWo": 56.4, "UACC-62": 87.2, "WM1716": 83.7, "RVH-421": 52.8}
{"drugs": "vincristine + MK-2206", "LB2518-MEL": 146, "SK-MEL-30": 1410, "MZ2-MEL": 36.0, "MeWo": 1110, "UACC-62": 330, "WM1716": 1620, "RVH-421": 114}
{"drugs": "PF-04217903 + FH535", "501mel": 93.1, "LB2518-MEL": 46.0, "SK-MEL-30": 73.9, "MZ2-MEL": 56.0, "MeWo": 54.4, "UACC-62": 38.5, "WM1716": 130, "RVH-421": 114}
{"drugs": "SU6656 + PD173074", "501mel": 259, "LB2518-MEL": 69.2, "SK-MEL-30": 116, "MZ2-MEL": 198, "MeWo": 114, "UACC-62": 60.2, "WM1716": 41.6, "RVH-421": 148}
{"drugs": "NVP-TAE684 + vincristine", "501mel": 86.4, "LB2518-MEL": 98.9, "SK-MEL-30": 370, "MZ2-MEL": 53.1, "MeWo": 266, "UACC-62": 223, "WM1716": 196, "RVH-421": 136}
{"drugs": "SU6656 + vincristine", "LB2518-MEL": 163, "SK-MEL-30": 467, "MZ2-MEL": 692, "MeWo": 115, "UACC-62": 142, "WM1716": 500, "RVH-421": 166}
{"drugs": "GW0742 + KU-55933", "501mel": 37.3, "LB2518-MEL": 137, "SK-MEL-30": 92.0, "MZ2-MEL": 41.6, "MeWo": 158, "UACC-62": 66.8, "WM1716": 101, "RVH-421": 83.2}
{"drugs": "KU-55933 + FH535", "501mel": 55.2, "LB2518-MEL": 61.8, "SK-MEL-30": 91.7, "MZ2-MEL": 168, "MeWo": 65.0, "UACC-62": 49.1, "WM1716": 66.1, "RVH-421": 89.2}
{"drugs": "KU-55933 + MK-2206", "501mel": 63.2, "LB2518-MEL": 127, "SK-MEL-30": 127, "MZ2-MEL": 126, "MeWo": 99.5, "UACC-62": 287, "WM1716": 63.7, "RVH-421": 120}
{"drugs": "MK-2206 + FH535", "501mel": 200, "LB2518-MEL": 56.9, "SK-MEL-30": 120, "MZ2-MEL": 180, "MeWo": 114, "UACC-62": 174, "WM1716": 74.0, "RVH-421": 255}
{"drugs": "GW2580 + temozolomide", "501mel": 71.6, "LB2518-MEL": 67.4, "SK-MEL-30": 312, "MZ2-MEL": 61.5, "MeWo": 66.3, "UACC-62": 319, "WM1716": 609, "RVH-421": 51.1}
{"drugs": "NVP-TAE684 + PD173074", "SK-MEL-30": 55.5, "MeWo": 111, "UACC-62": 351, "WM1716": 51.8, "RVH-421": 424}
{"drugs": "AS-252424 + IMD-0354", "501mel": 180, "LB2518-MEL": 54.7, "SK-MEL-30": 71.4, "MZ2-MEL": 19.9, "MeWo": 162, "UACC-62": 137, "WM1716": 102, "RVH-421": 56.8}
{"drugs": "GW0742 + PD173074", "501mel": 260, "LB2518-MEL": 65.6, "SK-MEL-30": 64.2, "MZ2-MEL": 166, "MeWo": 40.0, "UACC-62": 60.5, "WM1716": 18.5, "RVH-421": 129}
{"drugs": "GW2580 + PF-04217903", "501mel": 145, "LB2518-MEL": 73.6, "SK-MEL-30": 141, "MZ2-MEL": 59.7, "MeWo": 90.8, "UACC-62": 25.8, "WM1716": 117, "RVH-421": 46.6}
{"drugs": "MK-2206 + SU6656", "LB2518-MEL": 287, "SK-MEL-30": 141, "MZ2-MEL": 133, "MeWo": 105, "UACC-62": 234, "WM1716": 120, "RVH-421": 89.3}
{"drugs": "IMD-0354 + vincristine", "LB2518-MEL": 84.8, "SK-MEL-30": 205, "MZ2-MEL": 211, "MeWo": 61.4, "UACC-62": 222, "WM1716": 1040, "RVH-421": 132}
{"drugs": "AS-252424 + KU-55933", "501mel": 92.2, "LB2518-MEL": 54.7, "SK-MEL-30": 64.1, "MZ2-MEL": 48.2, "MeWo": 73.6, "UACC-62": 98.8, "WM1716": 84.5, "RVH-421": 63.5}
{"drugs": "IMD-0354 + GW0742", "501mel": 66.0, "LB2518-MEL": 59.6, "SK-MEL-30": 92.3, "MZ2-MEL": 48.8, "MeWo": 48.0, "UACC-62": 116, "WM1716": 89.1, "RVH-421": 424}

Some entries from above, unchanged:

* vincristine + MK-2206 : LB2518-MEL: 146; SK-MEL-30: 1410; MZ2-MEL: 36.0; MeWo: 1110; UACC-62: 330; WM1716: 1620; RVH-421: 114
* GW2580 + NVP-TAE684 : 501mel: 193; LB2518-MEL: 166; SK-MEL-30: 64.1; MZ2-MEL: 90.3; MeWo: 111; UACC-62: 23.6; WM1716: 105; RVH-421: 50.1
* tipifarnib + temozolomide : LB2518-MEL: 46.7; SK-MEL-30: 73.4; MZ2-MEL: 74.8; MeWo: 67.4; UACC-62: 150; WM1716: 135; RVH-421: 49.2